These results are taken from patent US20230372307A1, “COMBINATION THERAPY USING BAX ACTIVATOR AGENT” (Albert Einstein College of Medicine, priority 2020, published 2023).

Turning to `O=C1/C(=N\Nc2nccs2)C(c2ccccc2)=NN1c1nc(-c2ccccc2)cs1` [BTSA1], the necropsy finding result (200 mg/kg BTSA1, 300 mg/kg BTSA1.2, oral gavage daily) is “die by kidney failure after 3 days of treatment”. Besides, the “white blood cells and neutrophils levels” value (oral 200 mg/Kg daily, second day) is “increased white blood cells and neutrophils levels”.
